Test results: PubChem BioAssay AID330 (DTP/NCI, 2004)
The list shows only some results of the screen, not a fair sample: it is rich in T/C values a quarter to a half above the control, in often repeated tests (any T/C) and in doses without a T/C. Further doses and runs are listed elsewhere. T/C gives the treated animals as a percentage of the vehicle group. Some doses have a count of surviving animals in place of a T/C: the source holds a T/C of zero for them, seemingly a mark for toxic or unscored doses. Some survivor counts are full or nearly so, which does not show that the dose was tolerated: survival well below the control is almost never listed, so the zero probably covers shortened survival too. Survivors were counted at the toxicity check, usually on the fifth day, unless a day is given; later deaths do not show. Schedule codes are those of the source, read here as Q, the interval in days (D) or hours (H), X, the number of doses. Some doses were run more than once; their values stand side by side, smallest first. Where survival is the endpoint, the PubChem record calls one and a half times the control and up active, and a quarter to a half above the control has no call in these data; cut-offs in other NCI protocols can differ. Some T/C values carry the count of animals alive at the toxicity check (mostly the fifth day); without a count, all were alive then.

System: P388 leukemia ip, CD2F1 mice, survival T/C
Assay: NCI In Vivo Anticancer Drug Screen. Data for tumor model P388 Leukemia (intraperitoneal) in CD2F1 (CDF1) mice
Details: T/C endpoint: median survival time, higher T/C = longer survival
[1] = dose: 100.0 mg/kg/injection, schedule: Q01DX009 (ip), vehicle: saline
[2] = dose: 200.0 mg/kg/injection, schedule: Q01DX009 (ip), vehicle: saline with Tween-80
[3] = dose: 10.0 mg/kg/injection, schedule: Q01DX009 (ip), vehicle: Klucel (hydroxypropylcellulose) (HPC)
[4] = dose: 20.0 mg/kg/injection, schedule: Q01DX009 (ip), vehicle: Klucel (hydroxypropylcellulose) (HPC)
[5] = dose: 200.0 mg/kg/injection, schedule: Q01DX009 (ip), vehicle: Klucel (hydroxypropylcellulose) (HPC)
[6] = dose: 200.0 mg/kg/injection, schedule: Q01DX005 (ip), vehicle: saline with Tween-80
[7] = dose: 400.0 mg/kg/injection, schedule: Q04DX002 (ip), vehicle: saline with Tween-80
[8] = dose: 25.0 mg/kg/injection, schedule: Q04DX003 (ip), vehicle: Klucel (hydroxypropylcellulose) (HPC)
[9] = dose: 240.0 mg/kg/injection, schedule: Q01DX005 (ip), vehicle: Klucel (hydroxypropylcellulose) (HPC)
[10] = dose: 120.0 mg/kg/injection, schedule: Q01DX005 (ip), vehicle: saline with Tween-80
[11] = dose: 240.0 mg/kg/injection, schedule: Q01DX005 (ip), vehicle: saline with Tween-80

For `C/C=C(\C)C(=O)OC1C(C)C2(O)C(C=C(CO)CC3(O)C(=O)C(C)=CC32)C2C(C)(C)C12OC(=O)CCCCCCCCC` (configuration not stated), the T/C (dose: 0.25 mg/kg/injection, schedule: Q01DX009 (ip), vehicle: saline + alcohol) was 132 % of control [5 of 6 alive].

With `Clc1c2ccccc2cc2cccnc12` the survivor count (dose: 50.0 mg/kg/injection, schedule: Q01DX009 (ip), vehicle: saline) was 5 of 6 and the survivor count [1] was 6 of 6.

In the case of `CS(=O)(=O)OCCF`, the survivor count (dose: 25.0 mg/kg/injection, schedule: Q01DX009 (ip), vehicle: saline with Tween-80) is reported as 2 of 6 and 4 of 6, the survivor count (dose: 50.0 mg/kg/injection, schedule: Q01DX009 (ip), vehicle: saline with Tween-80) is reported as 0 of 6 and the survivor count (dose: 100.0 mg/kg/injection, schedule: Q01DX001 (ip), vehicle: saline with Tween-80) is reported as 0 of 6. For the same molecule, the survivor count (dose: 100.0 mg/kg/injection, schedule: Q01DX009 (ip), vehicle: saline with Tween-80) was 0 of 6, the survivor count (dose: 200.0 mg/kg/injection, schedule: Q01DX001 (ip), vehicle: saline with Tween-80) was 0 of 6 and the survivor count [2] was 0 of 6. The survivor count (dose: 400.0 mg/kg/injection, schedule: Q01DX001 (ip), vehicle: saline with Tween-80) was 0 of 6.

For `c1cc2ccc3ccc[n+]4c3c2[n+](c1)CC4`, the survivor count [1] was 3 of 6, the survivor count (dose: 200.0 mg/kg/injection, schedule: Q01DX009 (ip), vehicle: saline) was 0 of 6 and the survivor count (dose: 400.0 mg/kg/injection, schedule: Q01DX009 (ip), vehicle: saline) was 0 of 6.

In the case of `N#CC(c1ccccc1)(N1CCOCC1)N1CCOCC1`, the survivor count (dose: 50.0 mg/kg/injection, schedule: Q04DX003 (ip), vehicle: saline) is reported as 0 of 6, the survivor count (dose: 100.0 mg/kg/injection, schedule: Q04DX003 (ip), vehicle: saline) is reported as 0 of 6 and the survivor count (dose: 200.0 mg/kg/injection, schedule: Q04DX003 (ip), vehicle: saline with Tween-80) is reported as 0 of 6. The survivor count (dose: 400.0 mg/kg/injection, schedule: Q04DX003 (ip), vehicle: saline with Tween-80) was 0 of 6.

`COc1ccc(/C=C/c2ccc3ccccc3[n+]2C)c(OC)c1OC` was tested, and the T/C (dose: 2.5 mg/kg/injection, schedule: Q01DX009 (ip), vehicle: Klucel (hydroxypropylcellulose) (HPC)) was 125 % of control, the T/C [3] was 127 % of control and the survivor count [4] was 1 of 6. For the same molecule, the survivor count (dose: 40.0 mg/kg/injection, schedule: Q01DX009 (ip), vehicle: Klucel (hydroxypropylcellulose) (HPC)) was 0 of 6.

In the case of `COc1cc2c(c(OC)c1OC)-c1ccc(OC)c(=O)cc1C(NC(=O)COc1ccccc1)CC2` (configuration not stated), the T/C (dose: 0.31 mg/kg/injection, schedule: Q01DX009 (ip), vehicle: Klucel (hydroxypropylcellulose) (HPC)) is reported as 130 % of control, the T/C (dose: 0.63 mg/kg/injection, schedule: Q01DX009 (ip), vehicle: Klucel (hydroxypropylcellulose) (HPC)) is reported as 136 % of control and the survivor count (dose: 5.0 mg/kg/injection, schedule: Q01DX009 (ip), vehicle: Klucel (hydroxypropylcellulose) (HPC)) is reported as 5 of 6. For the same molecule, the survivor count [3] was 0 of 6 and the survivor count [4] was 0 of 6.

`COc1ccc2c(c1OC)C(=O)O[C@@H]2[C@H]1c2c(cc3c(c2OC)OCO3)CCN1C` was tested, and the survivor count (dose: 31.3 mg/kg/injection, schedule: Q01DX010 (ip), vehicle: saline) was 6 of 6 and the survivor count (dose: 250.0 mg/kg/injection, schedule: Q01DX010 (ip), vehicle: saline) was 4 of 6.

In the case of `NC(CSc1nc2ccccn2c1[N+](=O)[O-])C(=O)O` (configuration not stated), the survivor count (dose: 100.0 mg/kg/injection, schedule: Q01DX009 (ip), vehicle: Klucel (hydroxypropylcellulose) (HPC)) is reported as 3 of 6 and the survivor count [5] is reported as 0 of 6.

With `CN(C)CCC(OC(=O)C(c1ccccc1)c1ccccc1)c1ccccc1` (configuration not stated) the survivor count [6] was 0 of 5.

For `Nc1ncnc2c1CCc1ccccc1-2`, the survivor count [7] was 1 of 6.

`CC(NC(=O)c1cccc2c1Oc1ccccc1S2)C(=O)O` (configuration not stated) was tested, and the survivor count (dose: 100.0 mg/kg/injection, schedule: Q04DX002 (ip), vehicle: saline with Tween-80) was 6 of 6 and the survivor count [7] was 0 of 6.

`CC(C)(C)N1N=C2CCCC2[Si]1(C)C` (configuration not stated) was tested, and the survivor count (dose: 200.0 mg/kg/injection, schedule: Q01DX005 (ip), vehicle: Klucel (hydroxypropylcellulose) (HPC)) was 4 of 6.

`COc1ccc(C#CC2(O)c3ccccc3C(O)(C#Cc3ccc(OC)cc3)c3ccccc32)cc1` (configuration not stated) was tested, and the survivor count [2] was 6 of 6.

For `Cn1ccc2c1CC(=O)NC2=O`, the T/C [8] was 126 % of control, the survivor count [8] was 0 of 6 and the survivor count (dose: 50.0 mg/kg/injection, schedule: Q04DX003 (ip), vehicle: Klucel (hydroxypropylcellulose) (HPC)) was 0 of 6. The survivor count (dose: 100.0 mg/kg/injection, schedule: Q04DX003 (ip), vehicle: Klucel (hydroxypropylcellulose) (HPC)) was 0 of 6, the survivor count (dose: 200.0 mg/kg/injection, schedule: Q04DX003 (ip), vehicle: Klucel (hydroxypropylcellulose) (HPC)) was 1 of 6 and the survivor count (dose: 400.0 mg/kg/injection, schedule: Q04DX003 (ip), vehicle: Klucel (hydroxypropylcellulose) (HPC)) was 5 of 6.

In the case of `O=C1CSC(=O)N1c1cccc(C(F)(F)F)c1`, the survivor count [2] is reported as 5 of 6.

In the case of `CCOc1ccc(C(/C(Cl)=N/O)C(Cl)(Cl)Cl)cc1` (configuration not stated), the survivor count (dose: 100.0 mg/kg/injection, schedule: Q01DX005 (ip), vehicle: Klucel (hydroxypropylcellulose) (HPC)) is reported as 3 of 6.

For `CCOC(=O)NNCC(=O)OCc1ccccc1`, the survivor count (dose: 12.5 mg/kg/injection, schedule: Q01DX009 (ip), vehicle: other) was 6 of 6.

For `CCN(CC)CCN=c1c(C)nc(C#N)c(N)n1O`, the T/C (dose: 40.0 mg/kg/injection, schedule: Q01DX009 (ip), vehicle: saline with Tween-80) was 126 % of control.

With `O=C(CCCC(=O)Nc1ccc2[nH]c3ccccc3c(=O)c2c1)Nc1ccc2[nH]c3ccccc3c(=O)c2c1` the survivor count [9] was 6 of 6.

For `CSCNC(=S)Nc1ccc(Cl)c(Cl)c1`, the survivor count [2] was 6 of 6.

In the case of `CC(C)(C)n1nc(C2CC2)cc1NC(=O)Nc1ccccc1`, the survivor count [9] is reported as 6 of 6.

`O=C1C=CC(=Nc2cc(Cl)c(O)c(Cl)c2)C=C1Cl` was tested, and the survivor count (dose: 50.0 mg/kg/injection, schedule: Q01DX005 (ip), vehicle: saline) was 2 of 5, the survivor count (dose: 100.0 mg/kg/injection, schedule: Q01DX005 (ip), vehicle: saline) was 1 of 5 and the survivor count (dose: 200.0 mg/kg/injection, schedule: Q01DX005 (ip), vehicle: saline) was 0 of 5.

With `CC1=NCc2c(nnn2C)N1` the survivor count (dose: 400.0 mg/kg/injection, schedule: Q01DX001 (ip), vehicle: Klucel (hydroxypropylcellulose) (HPC)) was 2 of 6.

With `c1ccc2c(c1)oc1cc3c(cc12)ncc1cccn13` the survivor count (dose: 25.0 mg/kg/injection, schedule: Q01DX005 (ip), vehicle: saline with Tween-80) was 5 of 5, the survivor count (dose: 50.0 mg/kg/injection, schedule: Q01DX005 (ip), vehicle: saline with Tween-80) was 5 of 5 and the survivor count (dose: 100.0 mg/kg/injection, schedule: Q01DX005 (ip), vehicle: saline with Tween-80) was 5 of 5. The survivor count [6] was 4 of 5.

`CN(C)CC(C)(CN(C)C)C(=O)/C=C/c1ccc(Cl)c(Cl)c1` was tested, and the survivor count (dose: 15.0 mg/kg/injection, schedule: Q01DX005 (ip), vehicle: saline with Tween-80) was 6 of 6, the survivor count (dose: 30.0 mg/kg/injection, schedule: Q01DX005 (ip), vehicle: saline with Tween-80) was 2 of 6 and the survivor count (dose: 60.0 mg/kg/injection, schedule: Q01DX005 (ip), vehicle: saline with Tween-80) was 0 of 6. For the same molecule, the survivor count [10] was 0 of 6 and the survivor count [11] was 0 of 6.

`Clc1cccc(NN=Nc2ccccc2)c1` was tested, and the survivor count (dose: 400.0 mg/kg/injection, schedule: Q01DX009 (ip), vehicle: Klucel (hydroxypropylcellulose) (HPC)) was 0 of 6.

`CCc1nc(N)nc(N)c1-c1ccc(NCCCN)c([N+](=O)[O-])c1` was tested, and the T/C [10] was 129 [5 of 6 alive] and 141 % of control and the survivor count [11] was 0 of 6.

For `COc1cc(N=Nc2cc(CN(C)C)cc3ncccc23)c(OC)cc1N=Nc1ccc([N+](=O)[O-])cc1`, the survivor count (dose: 50.0 mg/kg/injection, schedule: Q01DX009 (ip), vehicle: Klucel (hydroxypropylcellulose) (HPC)) was 6 of 6 and the T/C [5] was 128 % of control.
